From PMC7819943, “Rice protein-binding microarrays: a tool to detect cis-acting elements near promoter regions in rice” come the findings set out here.

Chains of the proteins cited; added tags and fusions are not shown.
UniProt Q0JBA9, entry or part of it: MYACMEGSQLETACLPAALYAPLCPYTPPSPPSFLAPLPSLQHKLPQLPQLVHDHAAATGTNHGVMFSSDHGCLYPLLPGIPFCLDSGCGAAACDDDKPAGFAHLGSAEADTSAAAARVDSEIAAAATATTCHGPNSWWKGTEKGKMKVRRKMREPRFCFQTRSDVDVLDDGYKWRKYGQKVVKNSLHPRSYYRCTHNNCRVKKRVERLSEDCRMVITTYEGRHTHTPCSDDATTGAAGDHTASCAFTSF

The list shows a part of the results.

This test concerns the target OsWRKY34 (Oryza sativa, UniProt Q0JBA9 1-250). The experiment in a line: protein-binding microarray (RPBM); PBS, 2% BSA, 51.3 ng/ul salmon testes DNA, 50 uM zinc acetate, 200 nM TF, 25 C, 1 h; high values mean tight binding. The note with it: protein: recombinant; tags: N-terminal polyhistidine and DsRed monomer fusion (pET32a); label: CyDye5-dUTP incorporated in the synthesized complementary strand; 3' TTTTT single-stranded linker to array surface; dsDNA, one strand shown. The method, boiled down: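 A custom Agilent array was converted to double-stranded form by primer extension with Cy5-dUTP and blocked with 2% BSA. Protein at 200 nM in PBS with 2% BSA, salmon testes DNA and 50 µM zinc acetate was applied for 1 h at 25 °C, followed by washing. The proteins were polyhistidine–DsRed N-terminal fusions of transcription factors, expressed in E. coli BL21-CodonPlus and Ni–NTA-purified. The binding signal is per-feature fluorescence intensity (arbitrary units) from an Axon 4000B scanner.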
For the sequence “TTTGCTTGACTGGATCCAGCCGTTCGTTTTTTCCTTCTTTCGGAGTCACCTAGTGCAG”, the binding signal is 10800 fluorescence intensity (a.u.). Regarding “ACTATTTCCTTGGCTCACCAGTAACTAAACACACCCATCACGGAGTCACCTAGTGCAG”, the binding signal was 8430 fluorescence intensity (a.u.). Regarding “AGGCTGGGGTTAGTGTGGAAGGGGAGGATTGGAACTTTGCCGGAGTCACCTAGTGCAG”, the binding signal is 9600 fluorescence intensity (a.u.).

With “GGTACCCCTTCTTGCCGCTGCGCGCCCACAGGTCGTCGGCCGGAGTCACCTAGTGCAG”, the binding signal is 8100 fluorescence intensity (a.u.). Turning to “GGGTGGAGGAGGGGACTTCGGGAGGGCGGTGGCGAGGGCGCGGAGTCACCTAGTGCAG”, the binding signal is 16400 fluorescence intensity (a.u.). With “CTGGCTGACCGGCAAGTCACCTATCGTTGTCTCATCTTCTCGGAGTCACCTAGTGCAG” the figure was 8160 fluorescence intensity (a.u.).

“ATCGTCGCAGTCGGACGGAGCGCCACGCCTTTTGACCGCGCGGAGTCACCTAGTGCAG”: the binding signal is 8740 fluorescence intensity (a.u.). As to “CGGTTTTTACTATACTGCCCTTGGCTGCACAACCTTTTATCGGAGTCACCTAGTGCAG”, the binding signal was 9080 fluorescence intensity (a.u.). To “GTCTACTACGGTAGTGTTTGGTTGAGGGGATGGGATGGGACGGAGTCACCTAGTGCAG” belongs 13900 fluorescence intensity (a.u.); to “TTTTCTCACATGTTTGACCATTCGTCTTATTCAAAAATTTCGGAGTCACCTAGTGCAG”, 9990 fluorescence intensity (a.u.); to “AGAATCCTGTGTTTTTCCTATTACTCCGTTTTTTCTACCCCGGAGTCACCTAGTGCAG”, 8760 fluorescence intensity (a.u.).

In the case of “ACCCTTCTCTTCCCCAAATCATCTGGAATCCAACGCCTGACGGAGTCACCTAGTGCAG”, the binding signal is 8160 fluorescence intensity (a.u.). On to “TCCAAACACATCACCTCCTATCTCCACCGGCACGCATGCCCGGAGTCACCTAGTGCAG”, for which the binding signal is 8660 fluorescence intensity (a.u.). With “ATGATACACAGACCTTTGACATGTTCAACTCATTTCGTATCGGAGTCACCTAGTGCAG” the figure was 8960 fluorescence intensity (a.u.). With “AGGTCGTTGTACACAGTGGTAGTTAATTAATTAGTCCATCCGGAGTCACCTAGTGCAG” the figure was 8840 fluorescence intensity (a.u.); with “TCTCCTCTCGGCTCTCTTATCTCACCCTTCGTTTCGCTCGCGGAGTCACCTAGTGCAG”, 15000 fluorescence intensity (a.u.).

As to “TGGTCATCATTTGCTATTTTTTCCTGCAGAGGGAATCAATCGGAGTCACCTAGTGCAG”, the binding signal was 8670 fluorescence intensity (a.u.). Take “ATTAGAGAATAGAAAGTTGTCGTTGACTCCATCTCTTTAACGGAGTCACCTAGTGCAG”: the binding signal was 8690 fluorescence intensity (a.u.). On to “AACCTTACATGCACCCTGCGTACTTTGATTTGCACACAATCGGAGTCACCTAGTGCAG”, for which the binding signal is 9240 fluorescence intensity (a.u.). Regarding “AATGCCCATAAAATCAATGCAACACTTTCCCCATTTCACTCGGAGTCACCTAGTGCAG”, the binding signal was 8090 fluorescence intensity (a.u.). “TGCACACACCCTCCCTTTGGCTTTCATCTGCATCTATTCACGGAGTCACCTAGTGCAG”: the binding signal was 11000 fluorescence intensity (a.u.). For “CATACTCTTTACCTTTTTTTTTGGCTCAGAGTTGGAAGCACGGAGTCACCTAGTGCAG”, the binding signal was 8410 fluorescence intensity (a.u.). With “GTTGTTTTTTTCCTGTGATGGAGGGTGTAGGTCGTAAAGTCGGAGTCACCTAGTGCAG” the figure was 8730 fluorescence intensity (a.u.); with “TTTTGCTTTGCGACACCGTACGTCCATGTTGCCCCAAACACGGAGTCACCTAGTGCAG”, 9120 fluorescence intensity (a.u.).

For “CCGCCCAAAACCACCGCCAAACCTCGCCGCCGAGCTGCCACGGAGTCACCTAGTGCAG”, the binding signal was 8760 fluorescence intensity (a.u.). As to “GTTGATGAGTTTGTAAGGGTGCTCTTTTTAGAGAGGGAGGCGGAGTCACCTAGTGCAG”, the binding signal is 8140 fluorescence intensity (a.u.). To “ATCTCTTGTGGCCTGAGTTTTTGGAGCTCTTCTCGTTGAACGGAGTCACCTAGTGCAG” belongs 8320 fluorescence intensity (a.u.); to “GCACGTGATGCTGATCCATCCATTGCTTGCGCGGCGGTGACGGAGTCACCTAGTGCAG”, 8340 fluorescence intensity (a.u.); to “GTTCACGCTGTTACGTACGCCCGCGGTCGTCACGACCGCACGGAGTCACCTAGTGCAG”, 8400 fluorescence intensity (a.u.).

As to “GTACCAAATGTTCCTTACTTTCTACTACATCCGTCTCAAACGGAGTCACCTAGTGCAG”, the binding signal is 8260 fluorescence intensity (a.u.). In the case of “CGTCGTAGGTAGTGTTCCCTTCAAACTTTCAACTTTTCCACGGAGTCACCTAGTGCAG”, the binding signal is 8590 fluorescence intensity (a.u.).

In the case of “CAATGGTGGTTTATCTTAAAGAGTACTACATCCGTCACAACGGAGTCACCTAGTGCAG”, the binding signal is 8630 fluorescence intensity (a.u.). For the sequence “AATAGCTCACCATTCAGTTTCAATAGTTTATGTTAATGTTCGGAGTCACCTAGTGCAG”, the binding signal is 8140 fluorescence intensity (a.u.). As to “GCCACAGCACTTACCCTGTCATCCTTGCCCTGCTATCATTCGGAGTCACCTAGTGCAG”, the binding signal was 8230 fluorescence intensity (a.u.). To “GAACCTATACATTCGCCACACTCCCCTGCTTCGCTTGCTTCGGAGTCACCTAGTGCAG” belongs 8670 fluorescence intensity (a.u.). With “CTCTCTCTCTCTCTCTCTCTCTCTTCCCACTCTCTCCTGCCGGAGTCACCTAGTGCAG” the figure was 9220 fluorescence intensity (a.u.); with “GCCGCTCACAGCCGTCTTCGCTTGCCCGCCGCCATCGCCACGGAGTCACCTAGTGCAG”, 17500 fluorescence intensity (a.u.). “CCTCCGCCCTGAGCCCCGGCAGCTTTGTTTTGGCCTCTCCCGGAGTCACCTAGTGCAG”: the binding signal is 8620 fluorescence intensity (a.u.). For “TGTGATGGACTTTTGGCATTGTGATTTGTGCAATTGGAACCGGAGTCACCTAGTGCAG”, the binding signal was 8590 fluorescence intensity (a.u.). With “GTCTCCACCGCGCCAATCCGCCACCGCCGTTAGCTTCGCCCGGAGTCACCTAGTGCAG” the figure was 9280 fluorescence intensity (a.u.); with “CGCGGTGTGCCGGGGAGGGAGGTGGTGGTTGAGGTTGAGGCGGAGTCACCTAGTGCAG”, 11700 fluorescence intensity (a.u.). On to “CACACAAAATAGACTTATTCCTTTAATTTCCTCGAGCAACCGGAGTCACCTAGTGCAG”, for which the binding signal is 9440 fluorescence intensity (a.u.).
